Reference: PubChem BioAssay AID504808 (Drosophila RNAi Screening Center, 2011)

- Screen: 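Chromatin factors that keep E2F targets switched off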 (primary screen)
- Cell system: Drosophila S2 cells
- Knock-down reagent: long dsRNA against Drosophila genes
- Detection: 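Firefly luciferase driven by E2F sites, normalised to Renilla luciferase on the same minimal promoter, measured by plate reader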
- Reading the numbers: E2F firefly: higher = more E2F reporter activity; Renilla normaliser: higher = more normaliser reporter signal
- Rule for the call: 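Called active if the normalised E2F reporter went up by over 50%; the cutoff is arbitrary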
The deposit covers about 21,000 reagents; below is an unselected part of those with a known target gene and a result. Over the whole deposit, 18 (0.084%) were called active. 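Raw counts without plate normalisation, one of two replicates; the ratio scores behind the calls were not deposited.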 Names joined by + are all predicted targets of the reagent. Reagent sequences are not shown. Not stated in the record: the amount of reagent, the time to read-out.

target gene | amplicon | E2F firefly, rep 1 | Renilla normaliser, rep 1 | activity call
Adgf-E | DRSC05973 | 98472 | 3827 | inactive
Acp53C14c | DRSC05626 | 1.60e5 | 5561 | inactive
trem | DRSC15575 | 1.31e5 | 6887 | inactive
CG44085 | DRSC02922 | 57872 | 119 | inactive
CG11178 | DRSC19396 | 7693 | 776 | inactive
Tps1 | DRSC00269 | 87904 | 3716 | inactive
CG3916 | DRSC15520 | 1.65e5 | 7721 | inactive
CG31206 | DRSC13388 | 81097 | 2783 | inactive
lin-52 | DRSC18106 | 44131 | 3883 | inactive
mRpS29 | DRSC04398 | 76415 | 3077 | inactive
CG17237 | DRSC00491 | 1.78e5 | 6207 | inactive
por | DRSC20362 | 1.53e5 | 7043 | inactive
mts | DRSC03574 | 79811 | 3564 | inactive
Caf1-180 | DRSC17807 | 7564 | 756 | inactive
scramb1 | DRSC09724 | 1.23e5 | 6759 | inactive
scramb1 | DRSC10667 | 1.19e5 | 6136 | inactive
scramb1 | DRSC10668 | 1.20e5 | 6342 | inactive
wntD | DRSC16423 | 1.09e5 | 5581 | inactive
CG32219 | DRSC09641 | 83380 | 4243 | inactive
ND-51L1 | DRSC06072 | 1.26e5 | 4951 | inactive
CG18809 | DRSC19818 | 1.44e5 | 6262 | inactive
CG33453 | DRSC05782 | 1.71e5 | 5943 | inactive
CG12017 | DRSC08225 | 1.21e5 | 4699 | inactive
CG33792 | DRSC05355 | 1.46e5 | 5180 | inactive
frm | DRSC09753 | 79478 | 4216 | inactive
CG9346 | DRSC04542 | 84254 | 3714 | inactive
fzr2 | DRSC04280 | 84124 | 2928 | inactive
Diedel | DRSC14317 | 1.18e5 | 5708 | inactive
oc | DRSC18808 | 93471 | 5536 | inactive
CG16898 | DRSC06635 | 1.34e5 | 5222 | inactive
sona | DRSC04089 | 1.09e5 | 4341 | inactive
sona | DRSC04574 | 80523 | 4581 | inactive
sona | DRSC04575 | 1.05e5 | 4335 | inactive
msb1l | DRSC03572 | 76203 | 3344 | inactive
Hmt-1 | DRSC15555 | 77851 | 3832 | inactive
Usp20-33 | DRSC07196 | 2826 | 170 | inactive
EMC5 | DRSC02469 | 97717 | 4159 | inactive
CG34160 | DRSC01131 | 1.41e5 | 6166 | inactive
CG12692 | DRSC17881 | 1.12e5 | 5286 | inactive
SsRbeta | DRSC11290 | 67644 | 3408 | inactive
AstA-R1 | DRSC17278 | 90265 | 2613 | inactive
AstA-R1 | DRSC17727 | 98144 | 6687 | inactive
E(spl)m6-BFM | DRSC16993 | 1.13e5 | 6247 | inactive
RpL9 | DRSC03418 | 89495 | 146 | inactive

A run of entries of the results above:
target gene | amplicon | E2F firefly, rep 1 | Renilla normaliser, rep 1 | activity call
Diedel | DRSC14317 | 1.18e5 | 5708 | inactive
oc | DRSC18808 | 93471 | 5536 | inactive
CG16898 | DRSC06635 | 1.34e5 | 5222 | inactive
sona | DRSC04089 | 1.09e5 | 4341 | inactive
sona | DRSC04574 | 80523 | 4581 | inactive
sona | DRSC04575 | 1.05e5 | 4335 | inactive
msb1l | DRSC03572 | 76203 | 3344 | inactive
Hmt-1 | DRSC15555 | 77851 | 3832 | inactive
Usp20-33 | DRSC07196 | 2826 | 170 | inactive
EMC5 | DRSC02469 | 97717 | 4159 | inactive

The results go on:
target gene | amplicon | E2F firefly, rep 1 | Renilla normaliser, rep 1 | activity call
Pura | DRSC08891 | 1.30e5 | 4470 | inactive
Pura | DRSC10862 | 1.04e5 | 4357 | inactive
Pura | DRSC10864 | 1.06e5 | 4173 | inactive
Pura | DRSC10865 | 90376 | 4059 | inactive
Pura | DRSC10866 | 1.05e5 | 4103 | inactive
hale | DRSC10882 | 1.41e5 | 6284 | inactive
mRpL24 | DRSC03113 | 95056 | 4214 | inactive
CG11180 | DRSC06055 | 69707 | 3107 | inactive
DEF8 | DRSC09840 | 78945 | 4234 | inactive
CG12995 | DRSC19515 | 1.59e5 | 6343 | inactive
Sod3 | DRSC07324 | 176 | 39 | inactive
Hers + amn | DRSC20306 | 1.37e5 | 5267 | inactive
CG17217 | DRSC02592 | 1.01e5 | 4505 | inactive
Lmx1a | DRSC09726 | 1.39e5 | 7467 | inactive
Lmx1a | DRSC10275 | 76280 | 4801 | inactive
comm | DRSC11336 | 1.88e5 | 7570 | inactive
CG31441 | DRSC15723 | 1.55e5 | 6375 | inactive
CG18210 (retired record) | DRSC19089 | 87489 | 2640 | inactive
CG18210 (retired record) | DRSC19795 | 7786 | 744 | inactive
CG17163 | DRSC20901 | 1.43e5 | 6180 | inactive
fok | DRSC02103 | 96165 | 4233 | inactive
kra | DRSC12320 | 98327 | 3357 | inactive
Nt5c | DRSC06711 | 2963 | 212 | inactive
CG13721 | DRSC08330 | 89152 | 3439 | inactive
slou | DRSC17058 | 1.61e5 | 7363 | inactive
hubl | DRSC06825 | 1.29e5 | 4333 | inactive
CG42264 | DRSC18074 | 50054 | 3789 | inactive
CG42264 | DRSC18075 | 59019 | 3539 | inactive
TfIIA-S-2 | DRSC17791 | 44155 | 4130 | inactive
CG15756 | DRSC19721 | 63864 | 4336 | inactive
CG8206 | DRSC20093 | 8288 | 776 | inactive
wde | DRSC05955 | 3298 | 45 | inactive
Rrp5 | DRSC15862 | 77670 | 3064 | inactive
MAPk-Ak2 | DRSC18678 | 85423 | 4937 | inactive
soti | DRSC16432 | 85282 | 4347 | inactive
CG14314 | DRSC14793 | 1.35e5 | 6485 | inactive
CG13067 | DRSC09950 | 1.46e5 | 7743 | inactive
Ir47a | DRSC06215 | 1.48e5 | 4684 | inactive
CG5767 | DRSC06953 | 1.43e5 | 5132 | inactive
Crk | DRSC17163 | 1791 | 928 | inactive
